# Measured values published in the supplement of paper PMC10689618.
# Counter-ions that a name gives are not always drawn. The list shows a part of the results. Repeats are few or missing, and single values can be far off.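 Primary human fetal astrocytes engulfed labelled rat cortical synaptosomes, measured as a red/green ratio corrected for calcein live-cell signal and scaled to the plate median. Toxicity meant calcein falling over 30%; decreased phagocytosis meant below 70% of median above 5 µM.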
# Experiments:
# Human fetal astrocytes [1] = test: loss of total cells relative to no-compound high-control median (toxicity); higher = more toxic (fewer cells); conditions: 24 h
# Human fetal astrocytes [2] = test: synaptosome phagocytosis (pHrodo/calcein intensity ratio) relative to plate median of data wells; higher = more phagocytosis; conditions: 24 h
SMILES,loss of total cells (Human fetal astrocytes [1]; 1.39 µM),loss of total cells (Human fetal astrocytes [1]; 2.78 µM),loss of total cells (Human fetal astrocytes [1]; 5.56 µM),loss of total cells (Human fetal astrocytes [1]; 11.11 µM),loss of total cells (Human fetal astrocytes [1]; 22.22 µM),synaptosome phagocytosis (Human fetal astrocytes [2]; 1.39 µM),synaptosome phagocytosis (Human fetal astrocytes [2]; 2.78 µM),synaptosome phagocytosis (Human fetal astrocytes [2]; 5.56 µM),synaptosome phagocytosis (Human fetal astrocytes [2]; 11.11 µM),synaptosome phagocytosis (Human fetal astrocytes [2]; 22.22 µM)
O=C(O)C1=CCCNC1 [Guvacine hydrochloride],-0.4%,-12%,-6.6%,-9.4%,8%,114%,124%,104%,112%,116%
"NCCC1CCCC(CCN)N1 (stereo not given) [MDL 26,630 trihydrochloride]",-14.7%,5.9%,-8.9%,20%,19.6%,124%,116%,118%,108%,158%
"CC1(C)C(=O)N(CCN2CCC(C(=O)c3ccc(F)cc3)CC2)c2ccccc21 [LY-310,762 hydrochloride]",-6.2%,22.2%,9.9%,22.9%,15.9%,63.4%,97.5%,71%,67%,62%
N=C(N)SCCN [2-(2-Aminoethyl)isothiourea dihydrobromide],-23.9%,-7.8%,6.9%,8.5%,17.7%,80.6%,106%,60.8%,90.9%,94.5%
NC(N)=N[C@@H](CCC(=O)O)C(=O)O [alpha-Guanidinoglutaric acid],12.1%,-12%,5.8%,-13%,8.8%,141%,114%,108%,81%,113%
Nc1ccc(CCNc2ncnc3c2ncn3C2OC(CO)C(O)C2O)cc1 (stereo not given) [N6-2-(4-Aminophenyl)ethyladenosine],-27.5%,-6.9%,-15.2%,-29.1%,-10.2%,79.2%,99.7%,95.6%,118%,100%
COc1ccccc1NC(=O)Nc1nc(-c2cccnc2)nc2ccccc12,-12.7%,-22.5%,0%,-24.9%,-36.2%,113%,108%,113%,83.6%,112%
N[C@@H](CCCC(=O)O)C(=O)O [L-2-aminoadipic acid],-0.7%,0.6%,-0.5%,-1.3%,-3.4%,102%,118%,117%,122%,118%
NC(CCCP(=O)(O)O)C(=O)O (racemic) [(±)-2-Amino-5-phosphonopentanoic acid],-10.6%,-12.3%,-11.5%,-7.6%,4.1%,82%,84%,97%,120%,103%
